No constants are given. Whether binding was seen depends on the method and setting. Some entries that bind do so weakly or less than the wild type. Blank lines part the entries; values can stand above or below the binder they belong to.
Assays:
human LGR7 [1] = target: T1, human LGR7 (human, UniProt Q9HBX9 1-757); assay: discussion of the binding and functional results
T1 sequence (looked up): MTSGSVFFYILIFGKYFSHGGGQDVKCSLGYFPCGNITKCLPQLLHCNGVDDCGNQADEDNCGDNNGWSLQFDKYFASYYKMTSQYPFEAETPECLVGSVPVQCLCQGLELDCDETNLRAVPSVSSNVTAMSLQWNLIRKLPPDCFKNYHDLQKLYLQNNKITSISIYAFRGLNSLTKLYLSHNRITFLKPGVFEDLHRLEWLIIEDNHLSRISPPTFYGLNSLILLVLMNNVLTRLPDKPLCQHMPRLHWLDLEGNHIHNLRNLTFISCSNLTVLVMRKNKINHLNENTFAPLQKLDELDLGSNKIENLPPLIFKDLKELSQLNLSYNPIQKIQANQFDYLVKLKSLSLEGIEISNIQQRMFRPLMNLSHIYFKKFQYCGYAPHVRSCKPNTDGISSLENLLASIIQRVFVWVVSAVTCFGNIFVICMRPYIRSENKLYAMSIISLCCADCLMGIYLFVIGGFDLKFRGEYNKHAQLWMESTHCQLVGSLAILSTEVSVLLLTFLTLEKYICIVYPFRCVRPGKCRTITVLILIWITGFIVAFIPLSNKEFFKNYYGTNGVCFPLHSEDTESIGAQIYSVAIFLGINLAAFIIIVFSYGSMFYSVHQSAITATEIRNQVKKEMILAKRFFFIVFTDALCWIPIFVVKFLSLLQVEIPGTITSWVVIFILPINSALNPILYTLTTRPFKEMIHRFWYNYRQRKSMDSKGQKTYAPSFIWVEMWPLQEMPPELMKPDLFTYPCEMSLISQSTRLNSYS

Protein sequences, listed by entry. Tags and fused reporters are not part of them. Lines headed by an entry give the natural chain unless they say otherwise; changes in a name come on top.
UniProt Q8TDU9: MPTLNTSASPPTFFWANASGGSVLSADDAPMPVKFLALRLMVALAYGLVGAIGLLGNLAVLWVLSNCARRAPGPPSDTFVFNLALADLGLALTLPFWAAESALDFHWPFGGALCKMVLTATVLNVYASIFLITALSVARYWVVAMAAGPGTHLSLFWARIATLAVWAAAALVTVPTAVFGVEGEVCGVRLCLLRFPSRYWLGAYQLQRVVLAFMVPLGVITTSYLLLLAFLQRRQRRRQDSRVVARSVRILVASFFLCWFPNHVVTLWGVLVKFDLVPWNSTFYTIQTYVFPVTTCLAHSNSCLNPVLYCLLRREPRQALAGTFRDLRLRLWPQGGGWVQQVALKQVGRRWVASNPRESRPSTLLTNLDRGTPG
UniProt Q8WXD0: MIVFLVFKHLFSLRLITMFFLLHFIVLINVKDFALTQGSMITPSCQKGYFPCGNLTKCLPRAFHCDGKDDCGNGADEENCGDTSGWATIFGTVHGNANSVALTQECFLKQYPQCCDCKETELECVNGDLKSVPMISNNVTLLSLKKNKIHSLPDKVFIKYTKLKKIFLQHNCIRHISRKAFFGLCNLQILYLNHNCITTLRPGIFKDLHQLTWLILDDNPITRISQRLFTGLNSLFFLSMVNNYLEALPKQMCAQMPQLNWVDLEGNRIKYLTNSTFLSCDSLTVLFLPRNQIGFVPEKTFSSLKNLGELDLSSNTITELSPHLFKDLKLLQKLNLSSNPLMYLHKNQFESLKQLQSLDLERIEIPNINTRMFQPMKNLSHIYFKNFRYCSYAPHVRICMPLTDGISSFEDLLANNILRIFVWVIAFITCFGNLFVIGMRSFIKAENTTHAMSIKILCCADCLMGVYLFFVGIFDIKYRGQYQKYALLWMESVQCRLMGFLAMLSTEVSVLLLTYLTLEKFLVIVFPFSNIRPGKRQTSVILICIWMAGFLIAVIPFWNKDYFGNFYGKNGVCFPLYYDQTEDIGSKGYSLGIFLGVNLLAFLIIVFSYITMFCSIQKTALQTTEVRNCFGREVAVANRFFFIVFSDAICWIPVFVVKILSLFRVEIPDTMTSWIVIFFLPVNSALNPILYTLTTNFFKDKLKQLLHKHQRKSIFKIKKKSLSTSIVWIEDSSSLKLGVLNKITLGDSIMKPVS

human GPCR142 [2] = target: T2, human GPCR142 (human, UniProt Q8TDU9 1-374); assay: discussion of the binding and functional results
human GPCR135 [3] = target: T3, human GPCR135 (human, UniProt Q9NSD7 1-469); assay: discussion of the binding and functional results
T3 sequence: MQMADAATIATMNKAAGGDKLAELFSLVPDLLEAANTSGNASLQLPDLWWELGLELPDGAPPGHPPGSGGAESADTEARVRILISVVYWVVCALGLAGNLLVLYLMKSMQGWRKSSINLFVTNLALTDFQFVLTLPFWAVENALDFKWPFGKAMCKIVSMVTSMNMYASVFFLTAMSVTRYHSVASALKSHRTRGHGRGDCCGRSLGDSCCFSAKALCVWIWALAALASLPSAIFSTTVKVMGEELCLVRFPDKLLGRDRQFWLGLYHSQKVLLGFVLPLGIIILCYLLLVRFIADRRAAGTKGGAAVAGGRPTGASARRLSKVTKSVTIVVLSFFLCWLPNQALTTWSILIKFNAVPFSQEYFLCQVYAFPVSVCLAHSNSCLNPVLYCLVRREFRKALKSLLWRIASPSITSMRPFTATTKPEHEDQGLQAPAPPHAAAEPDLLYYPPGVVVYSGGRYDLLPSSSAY

rat GPCR135 (rat) [4] = target: T4, rat GPCR135 (rat); assay: receptor autoradiography, 7 pM, rat brain: cortex, somatosensory
T4 sequence: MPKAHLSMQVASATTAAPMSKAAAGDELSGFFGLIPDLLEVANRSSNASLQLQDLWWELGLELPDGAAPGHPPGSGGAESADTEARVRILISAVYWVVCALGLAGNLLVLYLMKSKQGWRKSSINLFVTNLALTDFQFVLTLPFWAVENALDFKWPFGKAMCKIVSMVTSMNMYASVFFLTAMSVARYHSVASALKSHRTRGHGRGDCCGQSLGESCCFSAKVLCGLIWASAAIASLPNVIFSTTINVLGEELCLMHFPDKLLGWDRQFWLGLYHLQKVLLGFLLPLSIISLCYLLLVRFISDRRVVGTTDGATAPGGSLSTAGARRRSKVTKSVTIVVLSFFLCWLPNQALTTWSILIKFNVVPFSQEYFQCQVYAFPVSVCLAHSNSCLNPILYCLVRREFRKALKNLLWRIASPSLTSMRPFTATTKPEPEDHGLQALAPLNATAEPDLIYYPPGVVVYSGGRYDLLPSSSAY

human GPCR135 [5] = target: T3, human GPCR135; assay: direct radioligand binding, monolayer cells expressing recombinant GPCR135
rat GPCR135 (rat) [6] = target: T4, rat GPCR135 (rat); assay: receptor autoradiography, 7 pM, rat brain: brain stem, inferior colliculus
rat GPCR135 (rat) [7] = target: T4, rat GPCR135 (rat); assay: receptor autoradiography, 7 pM, rat brain: amygdalohippocampal area
human GPCR135 [8] = target: T3, human GPCR135; assay: direct radioligand binding, 100 pM, COS-7 cells transfected with human GPCR135
rat GPCR135 (rat) [9] = target: T4, rat GPCR135 (rat); assay: receptor autoradiography, 7 pM, rat brain: brain stem, nucleus incertus
rat GPCR135 (rat) [10] = target: T4, rat GPCR135 (rat); assay: receptor autoradiography, 7 pM, rat brain: hypothalamus, supraoptic nucleus
rat GPCR135 (rat) [11] = target: T4, rat GPCR135 (rat); assay: receptor autoradiography, rat brain sections
rat GPCR135 (rat) [12] = target: T4, rat GPCR135 (rat); assay: receptor autoradiography, 7 pM, rat brain: habenula, medial
human GPCR142 [13] = target: T2, human GPCR142; assay: radioligand competition, COS-7 membranes
human GPCR135 [14] = target: T3, human GPCR135; assay: radioligand competition, COS-7 membranes
rat GPCR135 (rat) [15] = target: T4, rat GPCR135 (rat); assay: receptor autoradiography, 7 pM, rat brain: cortex, temporal
rat GPCR135 (rat) [16] = target: T4, rat GPCR135 (rat); assay: receptor autoradiography, 7 pM, rat brain: thalamus, centro lateral
rat GPCR135 (rat) [17] = target: T4, rat GPCR135 (rat); assay: receptor autoradiography, 5 pM tracer, rat brain sagittal sections
rat GPCR135 (rat) [18] = target: T4, rat GPCR135 (rat); assay: receptor autoradiography, 7 pM, rat brain: hypothalamus, paraventricular nucleus
rat GPCR135 (rat) [19] = target: T4, rat GPCR135 (rat); assay: receptor autoradiography, 7 pM, rat brain: bed nucleus stria terminalis
rat GPCR135 (rat) [20] = target: T4, rat GPCR135 (rat); assay: receptor autoradiography, 7 pM, rat brain: brain stem, superior colliculus
rat GPCR135 (rat) [21] = target: T4, rat GPCR135 (rat); assay: receptor autoradiography, 7 pM, rat brain: cortex, motor
rat GPCR135 (rat) [22] = target: T4, rat GPCR135 (rat); assay: receptor autoradiography, 7 pM, rat brain: hippocampal formation, dentate gyrus
rat GPCR135 (rat) [23] = target: T4, rat GPCR135 (rat); assay: receptor autoradiography, 7 pM, rat brain: amygdaloid body, central nucleus
rat GPCR135 (rat) [24] = target: T4, rat GPCR135 (rat); assay: receptor autoradiography, 7 pM, rat brain: thalamus, paraventricular
rat GPCR135 (rat) [25] = target: T4, rat GPCR135 (rat); assay: receptor autoradiography, 7 pM, rat brain: cortex, visual
rat GPCR135 (rat) [26] = target: T4, rat GPCR135 (rat); assay: receptor autoradiography, 7 pM, rat brain: amygdaloid body, lateral nucleus
rat GPCR135 (rat) [27] = target: T4, rat GPCR135 (rat); assay: receptor autoradiography, 7 pM, rat brain: septal region, lateral
rat GPCR135 (rat) [28] = target: T4, rat GPCR135 (rat); assay: receptor autoradiography, 7 pM, rat brain: brain stem, dorsal raphe, dorsal part
rat GPCR135 (rat) [29] = target: T4, rat GPCR135 (rat); assay: receptor autoradiography, 7 pM, rat brain: hippocampal formation, CAB field (so in the source)
rat GPCR135 (rat) [30] = target: T4, rat GPCR135 (rat); assay: receptor autoradiography, 7 pM, rat brain: olfactory bulb (density of binding sites)
rat GPCR135 (rat) [31] = target: T4, rat GPCR135 (rat); assay: receptor autoradiography, 7 pM, rat brain: amygdaloid body, medial nucleus
rat GPCR135 (rat) [32] = target: T4, rat GPCR135 (rat); assay: receptor autoradiography, 7 pM, rat brain: anterior olfactory nucleus
rat GPCR135 (rat) [33] = target: T4, rat GPCR135 (rat); assay: receptor autoradiography, 7 pM, rat brain: brain stem, interpeduncular nucleus
rat GPCR135 (rat) [34] = target: T4, rat GPCR135 (rat); assay: receptor autoradiography, 7 pM, rat brain: brain stem, periaqueductal gray area
rat GPCR135 (rat) [35] = target: T4, rat GPCR135 (rat); assay: receptor autoradiography, 7 pM, rat brain: thalamus, centro medial
rat GPCR135 (rat) [36] = target: T4, rat GPCR135 (rat); assay: receptor autoradiography, 7 pM, rat brain: brain stem, spinal trigeminal tract
rat GPCR135 (rat) [37] = target: T4, rat GPCR135 (rat); assay: receptor autoradiography, 7 pM, rat brain: cortex, piriform
human GPCR142 [38] = target: T2, human GPCR142; assay: discussion of the binding results
human LGR7 [39] = target: T1, human LGR7; assay: radioligand competition, live COS-7 cells with human LGR7
human LGR8 = human LGR8 (human, UniProt Q8WXD0 1-754); assay: competition with [125I]-INSL3, live COS-7 cells with human LGR8

Binder: RAAPYGVRLCGREFIRAVIFTCGGSRWQDLQTLCCTDGCSMTDLSALC (ligand) [human relaxin-3/INSL5 chimeric polypeptide (R3/I5), mature]
binding (human LGR7 [1]): binds
binding (human GPCR142 [2]): binds
binding (human GPCR135 [3]): binds
binding (rat GPCR135 (rat) [4]): binds
binding (human GPCR135 [5]): binds
binding (rat GPCR135 (rat) [6]): binds
binding (rat GPCR135 (rat) [7]): binds
binding (human GPCR135 [8]): binds
binding (rat GPCR135 (rat) [9]): binds
binding (rat GPCR135 (rat) [10]): binds
binding (rat GPCR135 (rat) [11]): binds
binding (rat GPCR135 (rat) [12]): binds
binding (human GPCR142 [13]): binds
binding (human GPCR135 [14]): binds
binding (rat GPCR135 (rat) [15]): binds
binding (rat GPCR135 (rat) [16]): binds
binding (rat GPCR135 (rat) [17]): binds
binding (rat GPCR135 (rat) [18]): binds
binding (rat GPCR135 (rat) [19]): binds
binding (rat GPCR135 (rat) [20]): binds
binding (rat GPCR135 (rat) [21]): binds
binding (rat GPCR135 (rat) [22]): binds
binding (rat GPCR135 (rat) [23]): binds
binding (rat GPCR135 (rat) [24]): binds
binding (rat GPCR135 (rat) [25]): binds
binding (rat GPCR135 (rat) [26]): binds
binding (rat GPCR135 (rat) [27]): binds
binding (rat GPCR135 (rat) [28]): binds
binding (rat GPCR135 (rat) [29]): binds
binding (rat GPCR135 (rat) [30]): binds
binding (rat GPCR135 (rat) [31]): binds
binding (rat GPCR135 (rat) [32]): binds
binding (rat GPCR135 (rat) [33]): binds
binding (rat GPCR135 (rat) [34]): binds
binding (rat GPCR135 (rat) [35]): binds
binding (rat GPCR135 (rat) [36]): binds
binding (rat GPCR135 (rat) [37]): binds

Binder: RAAPYGVRLCGREFIRAVIFTCGGSRWFDPFCCEVICDDGTSVKLC (ligand) [human relaxin-3/INSL4 chimeric polypeptide (R3/I4), mature]
binding (human GPCR142 [13]): binds
binding (human GPCR135 [14]): binds

Results, then the binder that gave them:

binding (human GPCR142 [13]): binds
binding (human GPCR135 [14]): binds
binding (human GPCR142 [38]): binds
Binder: RAAPYGVRLCGREFIRAVIFTCGGSRWGYSEKCCLTGCTKEELSIAC (ligand) [human relaxin-3/INSL6 chimeric polypeptide (R3/I6), mature]

binding (human GPCR142 [13]): binds
binding (human GPCR135 [14]): binds
binding (human LGR7 [39]): binds
binding (human LGR8): binds
B1: human relaxin-3/relaxin-2 chimeric polypeptide (R3/R2), mature (ligand)
chain: RAAPYGVRLCGREFIRAVIFTCGGSRWQLYSALANKCCHVGCTKRSLARFC
